Measurements as given in publication PMC7029496.
No constants are given. Whether binding was seen depends on the method and setting. In cells and extracts the contact can be indirect. Here binding means that the protein was enriched with, or labelled near, the bait; the list need not be complete.

B1: PhoP (XC_4031) (protein, UniProt Q7CLM6 1-227)
chain: MRILLVEDEAPLRETLAARLKREGFAVDAAQDGEEGLYMGREVPFDVGIIDLGLPKMSGMELIKALRDEGKKFPVLILTARSSWQDKVEGLKQGADDYLVKPFHVEELLARVNALLRRAAGWSKPTLECGPVALDLAAQTVSVNGANVDLTSYEYKVLEYLMMHAGELVSKADLTEHIYQQDFDRDSNVLEVFIGRLRKKLDPDGELKPIETVRGRGYRFAIPRTEG
B2: PilU (XC_1359) (protein, UniProt Q8P759 1-376)
chain: MSTIDFTSFLKLMAHQKASDLFITSGMPPAIKVHGKISPITQTPLTAQQSRDLVLNVMTPSQREEFEKTHECNFAIGVSGVGRFRVSCFYQRNQVGMVLRRIETRIPTVEELSLPPVIKTLAMTKRGIIIFVGATGTGKSTSLAAMIGYRNQNSTGHIITIEDPIEFVHKHEGCIITQREVGIDTDSWENALKNTLRQAPDVIMIGEVRTREGMDHAIAFAETGHLVLCTLHANNANQAMDRIINFFPEDRRNQLLMDLSLNLKGVVAQQLIPTPDGRGRRVAMEIMLGTPLVQDYIRDGEIHKLKEIMKESTNLGMRTFDQSLFELYQAGEISYEDALRYADSQNEVRLRIKLSQGGDAKTLSQGLDGVEIAEVR

Experiments:
[1] = target: 3 × Flag::PilH fusion protein (Xanthomonas campestris pv. campestris strain 8004); test: affinity purification with mass spectrometry; 3 × Flag-tagged PilG or PilH precipitated with ANTI-FLAG agarose from Xcc lysate (25 mM Tris-HCl pH 7.4, 100 mM NaCl, 1 mM EDTA, 1% NP-40, 10% glycerine), 4 °C, 3 h; eluted with 0.25 M glycine pH 2.5; done twice, results of the untagged control strain removed
[2] = target: 3 × Flag::PilG fusion protein (Xanthomonas campestris pv. campestris strain 8004); test: as above

Binder	binding [1]	binding [2]
B1	binds	
B2		binds
